This assay deals with human parkin, full-length, affinity tag cleaved (human) (UniProt O60260). Nature of the assay: MST + ITC; parkin with CISD1 (Supplementary Fig. S2); the text names 'either MST or ITC' and does not tell which was used for CISD1; both purified.

By UniProt entry, the sequences of proteins in these tests, tags left out.
UniProt O60260: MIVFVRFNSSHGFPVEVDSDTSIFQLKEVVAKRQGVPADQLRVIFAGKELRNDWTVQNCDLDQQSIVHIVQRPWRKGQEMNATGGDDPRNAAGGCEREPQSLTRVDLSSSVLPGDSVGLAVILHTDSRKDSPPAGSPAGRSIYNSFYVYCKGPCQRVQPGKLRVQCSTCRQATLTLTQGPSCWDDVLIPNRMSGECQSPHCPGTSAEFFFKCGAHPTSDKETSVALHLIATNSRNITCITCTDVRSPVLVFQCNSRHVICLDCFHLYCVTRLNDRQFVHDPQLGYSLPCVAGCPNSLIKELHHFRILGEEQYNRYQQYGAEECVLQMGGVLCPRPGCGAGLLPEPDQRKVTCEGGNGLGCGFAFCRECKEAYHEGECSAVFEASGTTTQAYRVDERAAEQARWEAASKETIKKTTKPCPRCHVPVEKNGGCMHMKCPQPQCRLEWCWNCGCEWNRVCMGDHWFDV

No constants are given. Whether binding was seen depends on the method and setting.

B1: human CISD1 (residues 32-108), entire extramembranous portion (domain or fragment, UniProt Q9NZ45 32-108)
chain: KRFYVKDHRNKAMINLHIQKDNPKIVHAFDMEDLGDKAVYCRCWRSKKFPFCDGAHTKHNEETGDNVGPLIIKKKET
Take B1: the binding result is recorded as “no binding (tested: Kd greater than 100 µM)”.

The record behind these values is publication PMC9022993.
